Data taken from the supplement of paper PMC10849652.
This is one part of the list.

Chains of the proteins cited; added tags and fusions are not shown. Lines headed by an entry give the natural chain unless they say otherwise; changes in a name come on top.
UniProt Q8N9Q2: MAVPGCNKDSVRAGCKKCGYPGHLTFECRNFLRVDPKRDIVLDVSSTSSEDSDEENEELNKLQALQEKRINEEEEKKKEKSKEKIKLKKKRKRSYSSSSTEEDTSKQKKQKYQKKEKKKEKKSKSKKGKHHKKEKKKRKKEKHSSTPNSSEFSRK
UniProt P22528: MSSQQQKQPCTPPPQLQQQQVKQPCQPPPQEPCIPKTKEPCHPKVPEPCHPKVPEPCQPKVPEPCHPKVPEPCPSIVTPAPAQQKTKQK
UniProt Q9NY15: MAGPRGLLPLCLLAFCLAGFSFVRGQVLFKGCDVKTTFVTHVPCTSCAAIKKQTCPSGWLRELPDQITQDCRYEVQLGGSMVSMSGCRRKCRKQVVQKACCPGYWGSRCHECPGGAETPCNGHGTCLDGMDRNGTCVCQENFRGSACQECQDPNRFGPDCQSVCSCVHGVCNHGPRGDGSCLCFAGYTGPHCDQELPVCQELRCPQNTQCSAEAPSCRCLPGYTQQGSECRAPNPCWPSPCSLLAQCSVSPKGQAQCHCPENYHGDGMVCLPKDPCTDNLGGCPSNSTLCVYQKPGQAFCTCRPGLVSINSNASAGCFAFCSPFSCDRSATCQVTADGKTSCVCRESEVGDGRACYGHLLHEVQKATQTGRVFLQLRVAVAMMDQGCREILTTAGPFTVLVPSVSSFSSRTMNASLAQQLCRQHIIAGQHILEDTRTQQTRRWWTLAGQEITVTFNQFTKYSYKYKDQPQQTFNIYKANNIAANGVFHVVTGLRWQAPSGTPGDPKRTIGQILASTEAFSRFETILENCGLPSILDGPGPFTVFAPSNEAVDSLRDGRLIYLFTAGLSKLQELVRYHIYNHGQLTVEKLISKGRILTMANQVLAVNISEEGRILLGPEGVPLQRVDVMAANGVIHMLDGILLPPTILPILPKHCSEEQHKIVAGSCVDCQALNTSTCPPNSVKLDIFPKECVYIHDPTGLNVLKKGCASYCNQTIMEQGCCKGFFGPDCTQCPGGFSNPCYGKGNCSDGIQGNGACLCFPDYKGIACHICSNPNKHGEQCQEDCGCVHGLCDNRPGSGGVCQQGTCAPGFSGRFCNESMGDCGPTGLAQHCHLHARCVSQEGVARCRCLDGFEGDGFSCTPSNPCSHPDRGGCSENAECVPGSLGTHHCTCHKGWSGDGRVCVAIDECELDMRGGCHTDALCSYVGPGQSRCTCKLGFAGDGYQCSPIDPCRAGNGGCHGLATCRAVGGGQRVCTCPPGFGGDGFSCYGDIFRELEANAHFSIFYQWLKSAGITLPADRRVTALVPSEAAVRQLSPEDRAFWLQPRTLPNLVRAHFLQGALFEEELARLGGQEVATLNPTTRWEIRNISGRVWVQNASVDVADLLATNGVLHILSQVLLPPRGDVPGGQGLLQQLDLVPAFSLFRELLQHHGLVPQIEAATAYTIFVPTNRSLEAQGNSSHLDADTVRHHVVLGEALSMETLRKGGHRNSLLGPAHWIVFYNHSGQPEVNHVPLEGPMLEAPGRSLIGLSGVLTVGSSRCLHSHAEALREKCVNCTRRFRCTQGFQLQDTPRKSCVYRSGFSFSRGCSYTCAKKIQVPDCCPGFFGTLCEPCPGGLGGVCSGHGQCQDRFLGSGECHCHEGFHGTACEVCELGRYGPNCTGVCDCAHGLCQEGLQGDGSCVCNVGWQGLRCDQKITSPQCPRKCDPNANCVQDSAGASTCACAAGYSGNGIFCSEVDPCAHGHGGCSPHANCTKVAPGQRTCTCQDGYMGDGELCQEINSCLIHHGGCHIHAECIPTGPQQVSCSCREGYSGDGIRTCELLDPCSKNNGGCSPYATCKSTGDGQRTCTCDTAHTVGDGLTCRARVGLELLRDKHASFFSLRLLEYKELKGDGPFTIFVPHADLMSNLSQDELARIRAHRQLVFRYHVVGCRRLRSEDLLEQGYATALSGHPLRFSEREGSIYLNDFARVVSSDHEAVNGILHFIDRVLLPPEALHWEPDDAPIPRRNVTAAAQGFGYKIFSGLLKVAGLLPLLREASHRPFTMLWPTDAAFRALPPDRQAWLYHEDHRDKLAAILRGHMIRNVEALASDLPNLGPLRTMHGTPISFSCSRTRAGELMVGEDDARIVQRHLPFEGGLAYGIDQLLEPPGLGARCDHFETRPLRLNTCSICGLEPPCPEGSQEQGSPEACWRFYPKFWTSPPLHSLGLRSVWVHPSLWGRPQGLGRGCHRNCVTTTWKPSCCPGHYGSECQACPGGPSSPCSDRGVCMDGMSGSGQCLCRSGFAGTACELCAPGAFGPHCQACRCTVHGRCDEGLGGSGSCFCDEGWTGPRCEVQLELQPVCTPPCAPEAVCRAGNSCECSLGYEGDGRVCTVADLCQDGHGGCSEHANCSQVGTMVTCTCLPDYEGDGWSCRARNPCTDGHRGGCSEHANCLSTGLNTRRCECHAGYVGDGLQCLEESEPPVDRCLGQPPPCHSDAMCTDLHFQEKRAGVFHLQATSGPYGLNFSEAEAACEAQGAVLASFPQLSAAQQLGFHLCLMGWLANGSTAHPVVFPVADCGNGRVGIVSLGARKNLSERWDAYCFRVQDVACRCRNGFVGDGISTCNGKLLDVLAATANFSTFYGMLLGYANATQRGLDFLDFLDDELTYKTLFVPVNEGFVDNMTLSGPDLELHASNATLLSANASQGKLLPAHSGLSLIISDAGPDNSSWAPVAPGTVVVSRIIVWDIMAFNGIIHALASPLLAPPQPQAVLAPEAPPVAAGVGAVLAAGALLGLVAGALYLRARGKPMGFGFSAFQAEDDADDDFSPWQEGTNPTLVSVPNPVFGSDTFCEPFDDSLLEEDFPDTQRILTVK
UniProt Q7Z698: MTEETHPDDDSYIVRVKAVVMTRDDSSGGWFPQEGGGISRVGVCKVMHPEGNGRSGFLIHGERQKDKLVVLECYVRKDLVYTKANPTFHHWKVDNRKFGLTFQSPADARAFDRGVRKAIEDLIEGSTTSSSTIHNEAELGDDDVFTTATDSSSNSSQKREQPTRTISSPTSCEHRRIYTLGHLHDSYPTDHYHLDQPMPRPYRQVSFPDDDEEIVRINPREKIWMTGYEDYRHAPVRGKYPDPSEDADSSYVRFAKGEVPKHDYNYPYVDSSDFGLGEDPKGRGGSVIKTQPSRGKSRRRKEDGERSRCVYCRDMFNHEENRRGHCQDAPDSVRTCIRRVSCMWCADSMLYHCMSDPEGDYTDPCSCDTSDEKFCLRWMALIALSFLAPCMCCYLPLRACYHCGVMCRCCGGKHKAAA
UniProt Q8TCT6: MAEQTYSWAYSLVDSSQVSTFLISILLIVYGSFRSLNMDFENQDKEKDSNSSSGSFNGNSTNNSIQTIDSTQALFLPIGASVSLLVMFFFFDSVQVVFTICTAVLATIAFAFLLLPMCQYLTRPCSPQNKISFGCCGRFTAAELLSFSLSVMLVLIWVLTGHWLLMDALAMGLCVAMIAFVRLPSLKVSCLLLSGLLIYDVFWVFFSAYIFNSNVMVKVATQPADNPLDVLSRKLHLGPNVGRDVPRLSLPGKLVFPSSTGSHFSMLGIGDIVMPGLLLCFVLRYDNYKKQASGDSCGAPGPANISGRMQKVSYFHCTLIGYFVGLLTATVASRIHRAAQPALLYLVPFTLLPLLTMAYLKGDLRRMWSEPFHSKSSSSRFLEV
UniProt Q15532, whole entry, looked up: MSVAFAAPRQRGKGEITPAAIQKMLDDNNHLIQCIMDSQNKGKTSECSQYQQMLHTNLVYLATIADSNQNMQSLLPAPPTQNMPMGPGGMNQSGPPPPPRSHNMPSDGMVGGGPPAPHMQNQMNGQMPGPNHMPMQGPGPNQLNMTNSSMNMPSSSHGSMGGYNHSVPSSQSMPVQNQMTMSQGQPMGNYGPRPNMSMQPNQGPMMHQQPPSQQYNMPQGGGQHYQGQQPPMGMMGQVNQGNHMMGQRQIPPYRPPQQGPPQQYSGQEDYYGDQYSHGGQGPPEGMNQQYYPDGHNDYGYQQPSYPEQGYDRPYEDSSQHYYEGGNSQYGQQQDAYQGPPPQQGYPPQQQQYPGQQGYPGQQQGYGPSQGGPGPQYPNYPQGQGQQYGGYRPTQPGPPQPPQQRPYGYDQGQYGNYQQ
UniProt Q9NUQ6: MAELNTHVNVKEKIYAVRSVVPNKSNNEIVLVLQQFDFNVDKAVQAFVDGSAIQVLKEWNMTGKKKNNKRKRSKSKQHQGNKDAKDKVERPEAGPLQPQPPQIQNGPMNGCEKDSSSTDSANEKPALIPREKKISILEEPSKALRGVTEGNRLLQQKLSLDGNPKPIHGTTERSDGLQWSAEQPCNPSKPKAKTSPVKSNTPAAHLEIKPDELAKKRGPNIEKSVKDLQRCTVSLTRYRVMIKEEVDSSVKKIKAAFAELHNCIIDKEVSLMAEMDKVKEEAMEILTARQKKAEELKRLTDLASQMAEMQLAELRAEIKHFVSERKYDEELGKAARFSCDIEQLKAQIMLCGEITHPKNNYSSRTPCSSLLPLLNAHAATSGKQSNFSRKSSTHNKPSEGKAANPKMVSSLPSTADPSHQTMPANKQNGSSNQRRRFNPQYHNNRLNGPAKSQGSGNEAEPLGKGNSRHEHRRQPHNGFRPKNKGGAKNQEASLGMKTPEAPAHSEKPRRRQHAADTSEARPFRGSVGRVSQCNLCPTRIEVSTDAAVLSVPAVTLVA
UniProt Q16384, whole entry, looked up: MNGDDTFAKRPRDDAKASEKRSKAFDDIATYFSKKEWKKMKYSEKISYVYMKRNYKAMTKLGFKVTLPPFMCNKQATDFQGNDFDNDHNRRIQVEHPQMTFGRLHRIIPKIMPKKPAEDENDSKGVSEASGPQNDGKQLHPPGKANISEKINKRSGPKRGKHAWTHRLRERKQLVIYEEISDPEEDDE
UniProt Q8N0Z3: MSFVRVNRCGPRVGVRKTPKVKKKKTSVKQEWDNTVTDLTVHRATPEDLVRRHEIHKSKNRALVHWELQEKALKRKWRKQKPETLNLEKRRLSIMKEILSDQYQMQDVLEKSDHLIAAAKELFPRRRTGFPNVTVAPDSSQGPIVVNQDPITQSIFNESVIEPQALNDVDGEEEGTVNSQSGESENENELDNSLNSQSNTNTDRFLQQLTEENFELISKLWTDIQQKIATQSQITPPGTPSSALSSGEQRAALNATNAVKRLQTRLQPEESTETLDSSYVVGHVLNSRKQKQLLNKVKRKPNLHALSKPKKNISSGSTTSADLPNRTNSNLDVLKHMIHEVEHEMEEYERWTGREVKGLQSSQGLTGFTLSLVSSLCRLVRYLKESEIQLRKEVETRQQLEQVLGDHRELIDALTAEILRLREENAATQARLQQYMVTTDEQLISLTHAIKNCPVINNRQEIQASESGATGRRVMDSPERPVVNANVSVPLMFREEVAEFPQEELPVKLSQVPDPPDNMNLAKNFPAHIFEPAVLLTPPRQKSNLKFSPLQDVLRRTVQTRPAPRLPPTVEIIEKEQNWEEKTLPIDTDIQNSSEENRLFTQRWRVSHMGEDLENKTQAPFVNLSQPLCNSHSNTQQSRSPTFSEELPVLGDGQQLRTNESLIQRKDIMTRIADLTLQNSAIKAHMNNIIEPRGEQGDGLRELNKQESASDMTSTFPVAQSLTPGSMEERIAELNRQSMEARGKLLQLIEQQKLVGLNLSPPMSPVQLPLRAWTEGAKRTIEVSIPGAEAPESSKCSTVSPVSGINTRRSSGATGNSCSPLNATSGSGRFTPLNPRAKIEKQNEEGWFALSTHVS
UniProt Q86XZ4: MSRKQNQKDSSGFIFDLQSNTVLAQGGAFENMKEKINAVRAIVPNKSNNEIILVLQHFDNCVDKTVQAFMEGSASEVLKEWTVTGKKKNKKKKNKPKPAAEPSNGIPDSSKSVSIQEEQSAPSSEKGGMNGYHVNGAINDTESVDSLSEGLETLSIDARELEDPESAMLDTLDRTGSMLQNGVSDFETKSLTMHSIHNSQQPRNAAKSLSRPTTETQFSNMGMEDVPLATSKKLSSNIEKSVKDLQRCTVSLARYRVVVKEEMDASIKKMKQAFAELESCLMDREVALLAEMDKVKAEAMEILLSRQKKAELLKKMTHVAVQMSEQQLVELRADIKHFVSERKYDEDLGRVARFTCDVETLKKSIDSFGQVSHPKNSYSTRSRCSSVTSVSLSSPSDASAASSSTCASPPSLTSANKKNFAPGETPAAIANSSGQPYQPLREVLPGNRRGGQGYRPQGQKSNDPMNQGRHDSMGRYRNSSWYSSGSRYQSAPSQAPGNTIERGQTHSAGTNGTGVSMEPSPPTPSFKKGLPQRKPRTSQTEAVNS
UniProt Q13103: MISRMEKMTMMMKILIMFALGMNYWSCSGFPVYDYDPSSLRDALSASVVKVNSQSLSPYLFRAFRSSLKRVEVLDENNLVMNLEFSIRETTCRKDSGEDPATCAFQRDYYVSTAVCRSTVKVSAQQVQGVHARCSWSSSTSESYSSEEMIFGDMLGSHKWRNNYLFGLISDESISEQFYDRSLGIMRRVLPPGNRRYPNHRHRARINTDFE

Key:
Test in all cases: log2 fold change, soluble protein after heating vs DMSO (PISA); higher = thermal stabilisation; K562 cells, 10 uM, 30 min; active = over 0.2 and 3.5 SD of the protein, either way, in both replicates (recomputed)
[1] = compound: CS(=O)(=O)c1ccc(-c2cnc(N)c(C(=O)Nc3ccccc3)n2)cc1
How it was run: (§1)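 K562 cells at 2×10^6 cells/mL were treated with 10 μM compound for 30 min. Aliquots were heated for 3 min across 48°C-58°C, pooled, and extracted in PBS with 0.5% NP-40 at 4°C; soluble protein was the supernatant after 21,000xg for 90 min. Soluble protein was quantified by TMTpro 16plex LC-MS/MS with channel sums equalised, and reported as log2 fold change in thermal stability against DMSO controls, with values from duplicates.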

[2] = compound: C[C@@H]1COCCN1C2=NC(=NC(=C2)C3(CC3)S(=O)(=O)C)C4=C5C=CNC5=CC=C4
How it was run: as §1

[3] = compound: C[C@H](C1=CC=C(C=C1)C(=O)NC2=C3C=CNC3=NC=C2)N
How it was run: as §1

duvelisib = compound: C[C@H](Nc1ncnc2nc[nH]c12)c1cc2cccc(Cl)c2c(=O)n1-c1ccccc1 [duvelisib]
How it was run: as §1

gandotinib = compound: Cc1cc(Nc2cc(CN3CCOCC3)c3nc(C)c(Cc4ccc(Cl)cc4F)n3n2)n[nH]1 [gandotinib]
How it was run: as §1

tozasertib = compound: Cc1cc(Nc2cc(N3CCN(C)CC3)nc(Sc3ccc(NC(=O)C4CC4)cc3)n2)n[nH]1 [tozasertib]
How it was run: as §1

[4] = compound: Cc1cc(SCc2sc(-c3ccc(C(F)(F)F)cc3)nc2C)ccc1OCC(=O)O
How it was run: as §1

ispinesib = compound: Cc1ccc(C(=O)N(CCCN)[C@@H](c2nc3cc(Cl)ccc3c(=O)n2Cc2ccccc2)C(C)C)cc1 [ispinesib]
How it was run: as §1

bafetinib = compound: Cc1ccc(NC(=O)c2ccc(CN3CC[C@H](N(C)C)C3)c(C(F)(F)F)c2)cc1Nc1nccc(-c2cncnc2)n1 [bafetinib]
How it was run: as §1

[5] = compound: Cc1cccc(CC(=O)N2CCc3c2ccc(-c2cn(C)c4ncnc(N)c24)c3F)n1
How it was run: as §1

nilotinib = compound: Cc1cn(-c2cc(NC(=O)c3ccc(C)c(Nc4nccc(-c5cccnc5)n4)c3)cc(C(F)(F)F)c2)cn1 [nilotinib]
How it was run: as §1

[6] = compound: Cc1nc(Nc2n[nH]c3c2CN(C(=O)N[C@H](CN(C)C)c2ccccc2)C3(C)C)c2sccc2n1
How it was run: as §1

dasatinib = compound: Cc1nc(Nc2ncc(C(=O)Nc3c(C)cccc3Cl)s2)cc(N2CCN(CCO)CC2)n1 [dasatinib]
How it was run: as §1

[7] = compound: Cc1ncc(-c2ccnc(Nc3ccc(S(C)(=O)=O)cc3)n2)n1C(C)C
How it was run: as §1

[8] = compound: Cn1cc(-c2ccc3c(c2)CCN3C(=O)Cc2cccc(C(F)(F)F)c2)c2c(N)ncnc21
How it was run: as §1

[9] = compound: Cn1cc(-c2ccc3nnc(C(F)(F)c4ccc5ncccc5c4)n3n2)cn1
How it was run: as §1

tipifarnib = compound: Cn1cncc1[C@@](N)(c1ccc(Cl)cc1)c1ccc2c(c1)c(-c1cccc(Cl)c1)cc(=O)n2C [tipifarnib]
How it was run: as §1

mubritinib = compound: FC(F)(F)c1ccc(/C=C/c2nc(COc3ccc(CCCCn4ccnn4)cc3)co2)cc1 [mubritinib]
How it was run: as §1

crizotinib = compound: C[C@@H](Oc1cc(-c2cnn(C3CCNCC3)c2)cnc1N)c1c(Cl)ccc(F)c1Cl [crizotinib]
How it was run: as §1

doramapimod = compound: Cc1ccc(-n2nc(C(C)(C)C)cc2NC(=O)Nc2ccc(OCCN3CCOCC3)c3ccccc23)cc1 [doramapimod]
How it was run: as §1

Measured: log2 fold change

SREK1IP1 (UniProt Q8N9Q2)
inactive: [1] -0.008 | [2] -0.194 | [3] 0.232 | duvelisib 0.027 | gandotinib 0.113 | tozasertib 0.043 | [4] 0.03 | ispinesib 0.011 | bafetinib 0.001 | [5] -0.014 | nilotinib -0.003 | [6] 0.093 | dasatinib 0.09 | [7] -0.058 | [8] -0.058 | [9] 0.025 | tipifarnib 0.09 | mubritinib -0.063

SRSF2 (UniProt Q01130)
active: [6] -0.541
inactive: [1] 0.005 | crizotinib 0.023 | [2] -0.107 | [3] 0.006 | gandotinib 0.092 | [4] -0.006 | doramapimod -0.033 | ispinesib -0.036 | bafetinib 0.02 | [5] -0.062 | nilotinib 0.007 | dasatinib 0.074 | [7] 0.034 | [8] -0.058 | [9] 0 | tipifarnib 0.085 | mubritinib -0.011

SPRR1B (UniProt P22528)
inactive: mubritinib -0.422

STAB1 (UniProt Q9NY15)
inactive: crizotinib -0.016 | [2] 0.114 | [3] -0.239 | duvelisib 0.045 | gandotinib -0.269 | [4] -0.195 | doramapimod 0.061 | ispinesib -0.181 | bafetinib 0.181 | [5] 0.188 | dasatinib -0.164 | [8] -0.192 | [9] 0.088 | tipifarnib 0.131 | mubritinib -0.145

SPRED2 (UniProt Q7Z698)
inactive: [3] 0.1 | [8] 0.034

SPPL3 (UniProt Q8TCT6)
inactive: mubritinib 0.083

SPIRE1 (UniProt Q08AE8)
inactive: crizotinib -0.105 | [2] -0.324 | [3] 0.087 | gandotinib 0.344 | doramapimod 0.096 | ispinesib -0.073 | bafetinib -0.06 | [5] -0.194 | nilotinib 0.007 | [6] 0.063 | [7] -0.046 | [8] -0.155 | [9] -0.026 | mubritinib 0.098

STIM2 isoform 2 (UniProt Q9P246)
inactive: [2] 0.01 | tozasertib 0.069 | nilotinib -0.065 | [6] 0.042 | [7] -0.077 | tipifarnib 0.162

SS18 (UniProt Q15532)
inactive: [3] -0.191 | duvelisib 0.232 | gandotinib -0.123 | tozasertib -0.194 | [4] 0.051 | ispinesib 0.386 | bafetinib 0.079 | [5] -0.153 | nilotinib 0.149 | [6] 0 | dasatinib 0.091 | [7] -0.141 | [8] 0.146 | [9] 0.396 | tipifarnib 0.108 | mubritinib 0.006

SPATS2L isoform 3 (UniProt Q9NUQ6)
inactive: [1] 0.033 | [2] -0.741 | [3] 0.555 | duvelisib -0.254 | [4] -0.141 | dasatinib 0.085 | [8] -0.259

SSX1 (UniProt Q16384)
inactive: [2] -0.13 | [3] 0.122 | bafetinib 0.079 | [8] -0.219 | tipifarnib 0.034

SPICE1 (UniProt Q8N0Z3)
inactive: gandotinib 0.137 | bafetinib -1.12 | [5] -0.624 | nilotinib -0.031 | [6] 0.051 | [7] 0.067

SPATS2 (UniProt Q86XZ4)
inactive: [3] 0.207 | duvelisib -0.062 | gandotinib 0.255 | [4] 0.166 | [5] -0.167 | dasatinib -0.082 | [8] -0.106

SSB (UniProt E7ERC4)
inactive: gandotinib -0.352 | [4] 0.337 | [5] -0.025 | dasatinib -0.528 | mubritinib -0.063

SQOR (UniProt Q9Y6N5)
inactive: [1] 0.053 | [2] -0.184 | duvelisib 0.101 | gandotinib -0.084 | [4] -0.155 | [5] 0.03 | dasatinib -0.008

STARD10 (UniProt Q9Y365)
inactive: [1] -0.052 | [2] -0.131 | duvelisib 0.088 | [4] 0.127 | dasatinib -0.261

Reprinted from the results shown (2 entries):
SPATS2L isoform 3 (UniProt Q9NUQ6)
inactive: [1] 0.033 | [2] -0.741 | [3] 0.555 | duvelisib -0.254 | [4] -0.141 | dasatinib 0.085 | [8] -0.259

SSX1 (UniProt Q16384)
inactive: [2] -0.13 | [3] 0.122 | bafetinib 0.079 | [8] -0.219 | tipifarnib 0.034

Next records.

STAR (UniProt P49675)
inactive: ispinesib -0.127 | [9] 0.011 | mubritinib -0.105

SPP2 (UniProt Q13103)
inactive: [1] -0.083 | [2] -0.023 | [3] -0.004 | duvelisib -0.04 | tozasertib 0.018 | [4] -0.303 | bafetinib -0.118 | dasatinib 0.126 | [8] 0.014
